Binding data for one substance are collected here from doi:10.1101/2021.08.22.457283.

Protein sequences, listed by entry. Tags and fused reporters are not part of them.
UniProt Q02248: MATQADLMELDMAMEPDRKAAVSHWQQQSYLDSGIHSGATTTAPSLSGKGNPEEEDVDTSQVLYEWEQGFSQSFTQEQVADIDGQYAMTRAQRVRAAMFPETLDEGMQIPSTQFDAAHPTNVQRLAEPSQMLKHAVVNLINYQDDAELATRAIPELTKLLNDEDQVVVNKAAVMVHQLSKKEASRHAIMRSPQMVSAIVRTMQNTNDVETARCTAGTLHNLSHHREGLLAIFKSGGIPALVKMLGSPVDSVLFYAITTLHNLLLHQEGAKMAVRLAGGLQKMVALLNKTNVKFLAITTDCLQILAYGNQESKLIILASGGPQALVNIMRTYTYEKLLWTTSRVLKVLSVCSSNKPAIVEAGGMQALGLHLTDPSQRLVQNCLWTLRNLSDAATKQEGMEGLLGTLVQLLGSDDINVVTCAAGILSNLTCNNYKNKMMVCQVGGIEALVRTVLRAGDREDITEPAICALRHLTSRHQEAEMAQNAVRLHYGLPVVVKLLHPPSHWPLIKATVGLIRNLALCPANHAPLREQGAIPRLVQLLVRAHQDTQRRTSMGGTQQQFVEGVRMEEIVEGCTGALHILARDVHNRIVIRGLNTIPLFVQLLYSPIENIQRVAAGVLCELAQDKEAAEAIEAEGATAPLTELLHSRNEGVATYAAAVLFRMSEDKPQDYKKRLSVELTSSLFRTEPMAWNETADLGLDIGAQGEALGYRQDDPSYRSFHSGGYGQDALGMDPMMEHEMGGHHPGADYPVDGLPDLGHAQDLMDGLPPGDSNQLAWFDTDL

The target in the assay is T1, TWIST1 (mouse (endogenous in embryonic hindbrain tissue)) (UniProt P26687).
T1 sequence: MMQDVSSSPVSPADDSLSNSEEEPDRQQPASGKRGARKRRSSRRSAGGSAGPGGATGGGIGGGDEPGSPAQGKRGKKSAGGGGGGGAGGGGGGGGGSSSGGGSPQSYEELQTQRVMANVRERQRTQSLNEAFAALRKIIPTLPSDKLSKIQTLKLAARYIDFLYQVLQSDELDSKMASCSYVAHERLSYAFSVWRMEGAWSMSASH
The assay is described as follows: co-IP.

These are yes or no findings as the source states them, for the method shown. Binding seen in cells or lysates may run through a third protein. Some results given as binding are weak or reduced against the parent protein; the word gives no strength.

β-CATENIN (from UniProt Q02248 1-781): the binding entry is on record as “binds”.
